Each number is a percent effect as filed. The record does not define 0% and 100%; most values in the screen are far below 50% and negative numbers occur (in some assays of this library far below -100). This is an unselected part of the compounds tested.

Mtb glucose medium: 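Phenotypic screen: M. tuberculosis growth, glucose 7H9 medium, 3 days; the read-out is not stated. Tested at 500 µM. Higher reads as more growth inhibition (inferred: compounds with an IC50 in retests scored well above the rest). About 18,000 compounds were tested under these conditions; 7.9% (about 1,400) showed 50% or more at least once.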
Mtb cholesterol medium: 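Growth of Mycobacterium tuberculosis over 4 days (cholesterol / DPPC medium with tyloxapol); the read-out is not stated. Tested at 500 µM. The record gives no direction; compounds that gave an IC50 in retests scored well above the rest, so higher reads as more growth inhibition. Size under these conditions: about 18,000 compounds, about 900 of them at 50% or above in at least one test.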

Compound	Mtb glucose medium	Mtb cholesterol medium
CC1CCCCN1CCNC(=O)c1ccccn1 (stereo not given)	0.07716	-4.598
Cc1ccc2c(c1)C(=O)CCCS2(=O)=O	6.511	-1.337
CC(Sc1ccccc1Cl)C(=O)NCC(=O)N(C)C (stereo not given)	32.14	5.53
CSCc1nnc(SCC(=O)NC2(C#N)CCCC2)o1	8.432	-2.363
COc1ccccc1CCNC(=O)CN	13.35	2.516
CN(C1CCCC1)S(=O)(=O)NCCNc1ccccn1	59.26	79.93
NCc1cc(C(F)(F)F)on1	6.089	7.791
NCCOc1ccc(OCCN)cc1	12.07	10.05
CC(C)c1nccn1CCCNC(=O)c1cnco1	9.37	11.19
CN(C)C(=O)c1cccc(N)n1	-4.982	-1.686
NCC(N)c1ccc2c(c1)OCCO2 (stereo not given)	35.58	21.91
CN1C(=O)CCC1C(=O)OCCn1cccn1 (stereo not given)	2.633	2.197
Cc1cc(NC(=O)NCC2CCN(CCO)CC2)no1	3.902	3.065
CN1C(=O)C(N)CCc2ccccc21 (stereo not given)	34.42	9.618
COC(=O)c1cccc(CN2CCCC2CO)c1C#N (stereo not given)	13.17	11.51
Cn1cc(C2CSCCN2Cc2cncs2)cn1 (stereo not given)	11.02	-0.7207
Cc1n[nH]cc1CNc1ccc(F)cc1	38.07	14.88
CSc1nnc(CN(C)CCO)s1	54.07	48.93
COC1CCN(C(=O)Cc2ccc(N(C)C)cc2)C1 (stereo not given)	56.98	58.7
CC(=O)N1CCC(NS(=O)(=O)c2ccc(C)s2)CC1	12.22	3.514
CC(C)OC(=O)C(C)CN (stereo not given)	-0.438	-4.46
c1cc(CCN2CCSCC2)ccn1	22.85	5.105
CN(C)Cc1ccc(C(=O)NCCn2cccc2)cc1	0.5153	12.09
Cc1nccn1CCCN1CCn2nc(CO)cc2C1	1.251	0.957
CNCC1CCS(=O)(=O)C1 (stereo not given)	6.164	-4.088
COCCN(Cc1ccccn1)C(=O)CC1CCNC1 (stereo not given)	6.96	-1.784
CC(N)c1ccc(-n2cccn2)cc1 (stereo not given)	42.21	20.61
O=C(NCCc1ccc(F)cc1)C1CNCCO1 (stereo not given)	17.81	4.626
c1cncc(C2NCC23CCC3)c1 (stereo not given)	0.552	8.166
CC[C@@H]1C[C@H]1NC(=O)N1CCC(CS(N)(=O)=O)CC1	13.22	13.86
Cc1nnc(CN(C)Cc2cncn2C(C)C)o1	-5.842	-15.2
CNCc1n[nH]c2c1CCCCC2	0.7472	-11.54
CC(C)C(=O)N1CCC(N)C1 (stereo not given)	8.735	7.82
Cc1n[nH]c(C)c1C	-14.28	-6.008
O=C1CCN(Cc2cccs2)CC1	40.37	31.57
CCS(=O)(=O)NCCNc1ccccc1	43.38	14
Cc1nonc1CC(=O)NC(C)c1nncn1C(C)C (stereo not given)	-17.41	-11.26
CCOC(=O)c1nc(C)n(C)n1	10.14	-1.098
COc1ccc(NC(=O)CC2CCN(C)CC2)cc1	26.05	22.36
NC1CC(=O)N(c2ccccc2Cl)C1 (stereo not given)	-2.958	-9.771
Cc1cc(C)nc(NC(=O)NCc2cnn(C)c2)c1	38	6.903
O=C(Cc1cnc[nH]c1=O)NCCCc1ccccn1	-0.2243	2.197
O=C(c1ccncc1F)N1CCC2(CCC2O)CC1 (stereo not given)	4.74	4.235
Cn1nnc2cc(C(=O)NC3C=CS(=O)(=O)C3)ccc21 (stereo not given)	-10.72	-14.81
CC(C)(C)N(CCS(C)(=O)=O)C(=O)c1ccc(Cl)cn1	-10.34	-20.46
NC1(C(=O)Nc2ccccc2)CC1	8.64	0.4313
Clc1cc2c(c(CN3CCNCC3)c1)OCC2	32.28	4.568
O=C(c1sccc1Cl)N1C[C@H](O)[C@@H](N2CCOCC2)C1	0.9213	1.447
O=C1N[C@H]2CCC[C@@H]1CN(Cc1ccsc1)C2	-1.841	-4.472
CC(N)c1nnc2n1CCC2 (stereo not given)	4.52	3.222
NC1CCC(N2C(=O)CCC2=O)CC1 (stereo not given)	2.667	-10.28
NCCNS(=O)(=O)CCc1ccccc1	12.58	2.888
CCOC(=O)c1sccc1-n1cnnn1	4.464	-7.087
O=c1c2cccnc2ncn1CCOCC(F)F	-3.229	-17.59
CSc1ncc(CN)n1C	-14.28	12.64
Ic1cnn(CCN2CCSCC2)c1	6.604	-0.1421
NC1(CO)Cc2ccccc2C1	13.68	3.685
CNC(=O)CN(CCO)Cc1cc(Br)ccc1F	25.18	5.191
O=C(c1ccccc1C(F)(F)F)N1CCCNCC1	25.8	3.591
Cc1csc(NC(=O)CN2CCn3ccnc3C2)n1	38.43	-5.352
CCc1cccc2c1N(C(=O)[C@@H](N)CC)CC2	61.27	23.31
CC(C)(C)OC(=O)NCCC(=O)NCc1cccnc1	-1.443	-10.16
CCc1nnsc1C(=O)N1CC(C)(C)C(C)(O)C1 (stereo not given)	5.423	-12.59
CC(=O)N[C@H]1CCN(CCn2c(=O)cc(C)[nH]c2=O)C1	1.016	-5.335
CCCNC(=O)NC(=O)CNc1cc(F)ccc1F	13.16	-14.06
CCc1ccc(NC(=O)CN2CC[C@@H](N)C2)cc1	54.73	40.12
CCOC(=O)CCNC(=O)C1CCCCCN1C (stereo not given)	12.46	9.858
Cc1ccc(OCCNC(=O)CN2CSCC2=O)cc1	29.54	46.88
COc1cc(Cl)c(CN)cc1OC	43.4	21.43
CN(Cc1c(F)cccc1Cl)C(=O)c1ccccn1	41.54	25.63
CC(C)COCCN1CCC(C#N)CC1	-0.2824	-9.694
NCCCC(=O)N(Cc1ccccc1F)C1CCC1	68.11	40.76
C=C(C)COc1ccc(C(=O)NCC[C@@H](C)CO)cc1	67.6	65.35
O=C(CC1C=CCC1)N1CCN(Cc2ccco2)CC1 (stereo not given)	71.63	68.7
CC1(C#N)CCNCC1	6.384	2.723
CN(CC(F)F)C(=O)C(N)Cc1ccccc1 (stereo not given)	8.959	23.2
NC(=O)C1CCN(CC(=O)Nc2ccc(F)cc2)CC1	1.971	-2.998
CS(=O)(=O)N(CC(N)=O)c1cc(C(F)(F)F)ccc1Cl	11.73	6.082

The first 7 entries again:

{"compound": "CC1CCCCN1CCNC(=O)c1ccccn1", "stereo": "stereo not given", "Mtb glucose medium": 0.07716, "Mtb cholesterol medium": -4.598}
{"compound": "Cc1ccc2c(c1)C(=O)CCCS2(=O)=O", "Mtb glucose medium": 6.511, "Mtb cholesterol medium": -1.337}
{"compound": "CC(Sc1ccccc1Cl)C(=O)NCC(=O)N(C)C", "stereo": "stereo not given", "Mtb glucose medium": 32.14, "Mtb cholesterol medium": 5.53}
{"compound": "CSCc1nnc(SCC(=O)NC2(C#N)CCCC2)o1", "Mtb glucose medium": 8.432, "Mtb cholesterol medium": -2.363}
{"compound": "COc1ccccc1CCNC(=O)CN", "Mtb glucose medium": 13.35, "Mtb cholesterol medium": 2.516}
{"compound": "CN(C1CCCC1)S(=O)(=O)NCCNc1ccccn1", "Mtb glucose medium": 59.26, "Mtb cholesterol medium": 79.93}
{"compound": "NCc1cc(C(F)(F)F)on1", "Mtb glucose medium": 6.089, "Mtb cholesterol medium": 7.791}

Source: ChEMBL document CHEMBL3988442, “University of Dundee, Small-Polar-MMV Screening Library” (2021).